No constants are given. Whether binding was seen depends on the method and setting. Binding seen in cells or lysates may run through a third protein. Some results given as binding are weak or reduced against the parent protein; the word gives no strength.
Biological target: Tet1 (wild type, endogenous in Tet1+/+ ESCs) (mouse (endogenous in V6.5 ESCs)) (UniProt Q3URK3)
Assay: co-IP; ESC nuclear extracts treated with benzonase; anti-Tet1 antibody crosslinked to Protein G magnetic beads, overnight 4°C; washes 20 mM HEPES pH 7.6, 10% glycerol, 100 mM KCl, 1.5 mM MgCl2, 0.2 mM EDTA; western blot; Tet1-/- ESCs as negative control

Sequences of proteins named here, by UniProt entry; tags and fusion partners are left off.
UniProt Q3URK3: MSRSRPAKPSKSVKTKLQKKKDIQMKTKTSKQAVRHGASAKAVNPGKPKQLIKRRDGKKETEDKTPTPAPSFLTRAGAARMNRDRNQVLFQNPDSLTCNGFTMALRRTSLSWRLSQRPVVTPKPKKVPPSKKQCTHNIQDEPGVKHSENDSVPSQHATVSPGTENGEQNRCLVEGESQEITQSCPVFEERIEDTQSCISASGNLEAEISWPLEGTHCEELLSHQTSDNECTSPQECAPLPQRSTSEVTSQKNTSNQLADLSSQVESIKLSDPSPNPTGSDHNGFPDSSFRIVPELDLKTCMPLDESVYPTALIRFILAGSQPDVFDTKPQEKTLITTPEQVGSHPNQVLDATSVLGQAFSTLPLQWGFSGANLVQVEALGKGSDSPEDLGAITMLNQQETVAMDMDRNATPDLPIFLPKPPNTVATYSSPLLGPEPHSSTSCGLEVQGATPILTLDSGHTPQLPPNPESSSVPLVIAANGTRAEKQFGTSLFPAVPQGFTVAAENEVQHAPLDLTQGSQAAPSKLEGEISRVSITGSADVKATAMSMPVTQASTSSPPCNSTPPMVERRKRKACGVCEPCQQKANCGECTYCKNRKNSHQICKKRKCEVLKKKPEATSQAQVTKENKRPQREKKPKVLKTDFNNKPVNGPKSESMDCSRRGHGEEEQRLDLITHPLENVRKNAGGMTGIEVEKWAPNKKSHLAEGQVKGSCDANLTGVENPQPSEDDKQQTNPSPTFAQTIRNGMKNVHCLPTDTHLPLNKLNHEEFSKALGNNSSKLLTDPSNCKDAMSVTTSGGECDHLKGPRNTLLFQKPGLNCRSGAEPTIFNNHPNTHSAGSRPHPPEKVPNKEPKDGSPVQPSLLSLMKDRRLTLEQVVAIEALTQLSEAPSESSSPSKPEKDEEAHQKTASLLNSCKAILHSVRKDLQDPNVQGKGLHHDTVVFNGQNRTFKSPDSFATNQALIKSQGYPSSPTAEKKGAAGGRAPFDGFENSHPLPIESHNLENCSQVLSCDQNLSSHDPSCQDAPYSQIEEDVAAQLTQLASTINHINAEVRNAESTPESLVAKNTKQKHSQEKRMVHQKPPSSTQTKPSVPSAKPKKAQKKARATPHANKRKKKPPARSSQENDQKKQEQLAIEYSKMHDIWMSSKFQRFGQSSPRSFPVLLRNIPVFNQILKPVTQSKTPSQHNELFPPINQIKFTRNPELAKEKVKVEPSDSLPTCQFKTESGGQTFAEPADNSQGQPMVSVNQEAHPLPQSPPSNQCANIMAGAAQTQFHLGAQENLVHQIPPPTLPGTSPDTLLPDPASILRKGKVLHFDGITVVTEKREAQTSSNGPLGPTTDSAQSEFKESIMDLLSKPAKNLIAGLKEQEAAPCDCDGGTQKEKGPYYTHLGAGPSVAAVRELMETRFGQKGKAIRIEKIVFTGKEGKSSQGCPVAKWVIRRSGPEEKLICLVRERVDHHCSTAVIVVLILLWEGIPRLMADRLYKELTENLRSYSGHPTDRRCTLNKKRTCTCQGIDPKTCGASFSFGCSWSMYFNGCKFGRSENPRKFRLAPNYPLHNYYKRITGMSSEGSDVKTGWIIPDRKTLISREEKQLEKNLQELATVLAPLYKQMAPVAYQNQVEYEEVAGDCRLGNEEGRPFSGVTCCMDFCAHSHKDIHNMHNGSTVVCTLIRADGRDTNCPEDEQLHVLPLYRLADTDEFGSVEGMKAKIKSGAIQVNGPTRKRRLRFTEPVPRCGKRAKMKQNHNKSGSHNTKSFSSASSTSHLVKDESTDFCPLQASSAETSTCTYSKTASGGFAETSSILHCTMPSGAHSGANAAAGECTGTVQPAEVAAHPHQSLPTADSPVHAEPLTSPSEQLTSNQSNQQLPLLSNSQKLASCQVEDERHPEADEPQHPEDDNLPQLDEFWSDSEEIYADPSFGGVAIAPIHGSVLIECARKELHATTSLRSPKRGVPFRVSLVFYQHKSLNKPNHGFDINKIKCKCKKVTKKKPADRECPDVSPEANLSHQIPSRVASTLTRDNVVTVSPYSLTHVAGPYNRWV

- binding: binds
B1: Sin3a (endogenous in mouse ESCs) (protein, UniProt Q60520 1-1274)
chain: MKRRLDDQESPVYAAQQRRIPGSTEAFSHQHRVLAPAPPVYEAVSETMQSATGIQYSVAPNYQVSAVPQSSGSHGPAIAAVHSSHHHPTAVQPHGGQVVQSHAHPAPPVAPVQGQQQFQRLKVEDALSYLDQVKLQFGSQPQVYNDFLDIMKEFKSQSIDTPGVISRVSQLFKGHPDLIMGFNTFLPPGYKIEVQTNDMVNVTTPGQVHQIPTHGIQPQPQPPPQHPSQPSSQSAPTPAQPAPQPTAAKVSKPSQLQAHTPASQQTPPLPPYASPRSPPVQPHTPVTISLGTAPSLQNNQPVEFNHAINYVNKIKNRFQGQPDIYKAFLEILHTYQKEQRNAKEAGGNYTPALTEQEVYAQVARLFKNQEDLLSEFGQFLPDANSSVLLSKTTAEKVDSVRNDHGGTVKKPQLNNKPQRPSQNGCQIRRHSGTGATPPVKKKPKLMSLKESSMADASKHGVGTESLFFDKVRKALRSAEAYENFLRCLVIFNQEVISRAELVQLVSPFLGKFPELFNWFKNFLGYKESVHLESFPKERATEGIAMEIDYASCKRLGSSYRALPKSYQQPKCTGRTPLCKEVLNDTWVSFPSWSEDSTFVSSKKTQYEEHIYRCEDERFELDVVLETNLATIRVLEAIQKKLSRLSAEEQAKFRLDNTLGGTSEVIHRKALQRIYADKAADIIDGLRKNPSIAVPIVLKRLKMKEEEWREAQRGFNKVWREQNEKYYLKSLDHQGINFKQNDTKVLRSKSLLNEIESIYDERQEQATEENAGVPVGPHLSLAYEDKQILEDAAALIIHHVKRQTGIQKEDKYKIKQIMHHFIPDLLFAQRGDLSDVEEEEEEEMDVDEATGAPKKHNGVGGSPPKSKLLFSNTAAQKLRGMDEVYNLFYVNNNWYIFMRLHQILCLRLLRICSQAERQIEEENREREWEREVLGIKRDKSDSPAIQLRLKEPMDVDVEDYYPAFLDMVRSLLDGNIDSSQYEDSLREMFTIHAYIAFTMDKLIQSIVRQLQHIVSDEVCVQVTDLYLAENNNGATGGQLNSQTSRSLLESAYQRKAEQLMSDENCFKLMFIQSQGQVQLTVELLDTEEENSDDPVEAERWSDYVERYMSSDTTSPELREHLAQKPVFLPRNLRRIRKCQRGREQQEKEGKEGNSKKTMENVESLDKLECRFKLNSYKMVYVIKSEDYMYRRTALLRAHQSHERVSKRLHQRFQAWVDKWTKEHVPREMAAETSKWLMGEGLEGLVPCTTTCDTETLHFVSINKYRVKYGTVFKAP

Reference: publication PMC8989540
